# In all, about 330,000 compounds went through this assay and about 1,000 (0.3%) were called active. The inconclusive results got no clear call from the source; some entries with a clear call stand among them for comparison. The call rests on the fitted dose curve; in most records, active means well fitted inhibition curve with a large enough effect; inconclusive means small, poorly fitted or top-dose-only effect; inactive means no such curve, though single readings can be large or run the other way; tested in mouse RAW 264.7 cells. A potency beside an inconclusive call is a rough fit, not a confirmed value.
# Assay: qHTS for Inhibitors of Cell Surface uPA Generation; further: nearly all actives have a fitted effect of over 55% in size
# Settings: cell surface uPA generation assay; series mostly up to 38.3 µM; activity change, negative = inhibition: at the top concentration
# Procedure, shortened: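 RAW 264.7, 4000 cells/well, o/n 37 C; cpd 1:5 dilution, up to 38.3 uM final; 24 h 37 C/5% CO2 with reagent; ATP-Lite lum. High ATP = LF entry blocked.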
# On the % scale 0 is the no-effect control and ±100 the full control effect; potency means the concentration at half of the fitted maximal effect.
Compound,"activity change, negative = inhibition",Potency
Cc1ccc(NC(=O)C2CCCN(C(=O)c3ccc(Cl)cc3)C2)cc1C (stereo not given),inactive: -1.63%,
CC(C)N(C(=O)[C@H]1C[C@H](CC(=O)NCc2cccc(C(F)(F)F)c2)C(=O)N2CCc3c([nH]c4cc(CCC(=O)N(C)C)ccc34)[C@]12C)C(C)C,,"inconclusive: 28.2 µM [inhibitor, single point]"
CC(C)Sc1nnc(-c2c[nH]c3ccccc23)n1C,,"inconclusive: 12.6 µM [inhibitor, single point]"
O=C(NCc1cccs1)c1cc(-c2ccc(O)cc2)on1,,"inconclusive: 3.98 µM [inhibitor, partial curve, poor fit]"
C=CC[C@H](CC(=O)N(CCO)Cc1ccccc1)C(=O)NC[C@H](OC(=O)[C@@H](CC=C)Cc1ccc(F)cc1)c1ccccc1,,"inconclusive: 12.6 µM [inhibitor, single point]"
Cc1nnsc1C(=O)NC1CCCc2c1cnn2-c1cc(F)cc(F)c1 (stereo not given),inactive: -12.3%,
O=C1CCN(Cc2ccccc2)C=C1c1ccc(Br)cc1,,"inconclusive: 10 µM [inhibitor, single point]"
COc1ccc(CN(C)C(=O)CCl)cc1,,"inconclusive: 7.08 µM [inhibitor, partial curve, poor fit]"
CC(C)CCNCC(O)CON=C1c2ccccc2-c2ccccc21 (stereo not given),,"inconclusive: 12.6 µM [inhibitor, single point]"
CCOc1ccc(NS(=O)(=O)c2cc(C(=O)N3CCC3)ccc2Cl)cc1,,"inconclusive: 11.2 µM [inhibitor, single point]"
COc1ccc(CN2C(=O)c3cccnc3C2=O)cc1S(=O)(=O)N1CCCC(C)C1 (stereo not given),inactive: 1.51%,
Cc1ccc(C(=O)Nc2nc(-c3ccccn3)cs2)cc1S(=O)(=O)N1CCOCC1,,"inconclusive: 5.01 µM [inhibitor, partial curve, poor fit]"
CCCC(=O)Nc1c(C(=O)OCC)[nH]c2ccccc12,,"inconclusive: 0.562 µM [inhibitor, full curve, poor fit]"
CCC(CC)NC(=O)c1cc(S(=O)(=O)N2CCCCC2)ccc1N1CCOCC1,inactive: -11.5%,
COc1cccc(/C=N/NC(=O)Cn2ccnc2C)c1,inactive: 3.47%,
Nc1ccc2c(c1)Cc1cc(N)c(Cl)cc1-2,inactive: -7.69%,
O=C(N1CCOCC1)N1CCN(c2ccccc2F)CC1,,"inconclusive: 0.0089 µM [inhibitor, full curve, poor fit]"
CC(C)(C)NC(=O)C(c1ccc(-c2ccccc2)cc1)N(C[C@H]1CC[C@@H]([C@@H]2CC[C@H](CO)O2)O1)C(=O)c1ccc2ccccc2c1 (stereo not given in full),,"inconclusive: 28.2 µM [inhibitor, single point]"
C/C(CC(=O)Nc1cc(C)ccn1)=N\NC(=O)c1ccc(C(C)(C)C)cc1,inactive: 4.61%,
Cn1cccc1C(=O)Nc1ccc(N2CCOCC2)cc1,,"inconclusive: 1.58 µM [inhibitor, full curve, poor fit]"
O=S(=O)(Nc1ccc(-c2ccc(N3CCOCC3)nn2)cc1)c1cc(Cl)ccc1Cl,,"inconclusive: 20 µM [inhibitor, single point]"
C[C@H]1CN([C@@H](C)CO)C(=O)c2cccc(NS(=O)(=O)c3ccc(F)cc3)c2O[C@H]1CN(C)Cc1ccc(Cl)c(Cl)c1,,"inconclusive: 7.08 µM [inhibitor, partial curve]"

Compound,"activity change, negative = inhibition",Potency
C/C(=N\S(=O)(=O)c1ccc(C)cc1)NC(=S)Nc1ccccc1,,"inconclusive: 2.82 µM [inhibitor, single point]"
Cc1ccnc(NC(=O)c2ccccc2NC(=O)c2ccc(Cl)cc2Cl)c1,,active: 2.82 µM
CCc1ccccc1NC(=O)CN(C)C(=O)COC(=O)c1c(Cl)cccc1Cl,,"inconclusive: 1.12 µM [inhibitor, single point]"
COc1ccc(/C=N/NC(=S)Nc2ccccc2[N+](=O)[O-])cc1O,,"inconclusive: 11.2 µM [inhibitor, single point]"
CCCCN1C=CC(=C2C(=O)c3ccccc3C2=O)C=C1,inactive: -19.7%,
CCOc1ccc(-c2c(C(=O)N/N=C/c3ccco3)nnn2-c2nonc2N)cc1,,"inconclusive: 10 µM [inhibitor, single point]"
CCCCCCCCCCCCCCCCn1cc[n+](CC(C)=O)c1,,"inconclusive: 3.16 µM [inhibitor, partial curve, poor fit]"
COCCNC(=O)Cn1ccc2cc(S(=O)(=O)N3CCCCCC3)ccc21,,"inconclusive: 2.82 µM [inhibitor, full curve, poor fit]"
CCCCNC(=S)N/N=C/c1ccccc1F,inactive: -0.11%,
Cc1cccc(N2C(=O)NC3(CCCCC3)C2=O)c1,inactive: 0.0401%,
COc1cccc2oc3ccc(C#Cc4ccccn4)cc3c(=O)c12,,"inconclusive: 1.41 µM [inhibitor, full curve, poor fit]"
O=C(Cc1cccs1)Nc1nc2c(ccc3ccccc32)s1,inactive: 12.1%,
C[C@]12c3[nH]c4ccc(Cl)cc4c3CCN1C(=O)[C@@H](CC(=O)NCCC1=CCCCC1)C[C@@H]2C(=O)N1CCOCC1,,"inconclusive: 11.2 µM [inhibitor, partial curve, poor fit]"
CC(C)CNC(=O)c1cc([N+](=O)[O-])ccc1N1CCCCC1,,"inconclusive: 7.08 µM [inhibitor, partial curve, poor fit]"
O=C(Nc1ccccc1)Nc1ccccc1C(=O)NCC1CC1,,"inconclusive: 14.1 µM [inhibitor, partial curve, poor fit]"
CCOc1ccc2[nH]c3c(NCCC(C)C)ncnc3c2c1,,"inconclusive: 6.31 µM [inhibitor, partial curve, poor fit]"
Cc1cc(C)c(CN2CCN(CCCn3cnc(C(=O)Nc4ccc(C)c(C)c4)n3)CC2)c(C)c1,,"inconclusive: 28.2 µM [inhibitor, single point]"
COC(=O)C1CSC(C)(C)C(=O)N1 (stereo not given),inactive: -16.8%,
O=C(/C=C/c1ccc(O)c(O)c1)OCCc1ccccc1,,active: 0.891 µM
Cc1cc2ccccn2c1C(=O)c1ccc([N+](=O)[O-])o1,inactive: -9.59%,
COC(=O)CCC(NS(=O)(=O)OCC(Cl)(Cl)Cl)c1ccccc1 (stereo not given),inactive: -11.7%,
COC(=O)c1cc(OC)c(OC)cc1NC(=O)Cc1ccccc1[N+](=O)[O-],,"inconclusive: 7.08 µM [inhibitor, partial curve]"

Compound,"activity change, negative = inhibition",Potency
Cc1ccc(N2CC(C(=O)Nc3ccc4c(c3)OCO4)CC2=O)cc1C (stereo not given),inactive: 1.25%,
COCCn1cc(-c2csc(N)n2)c2ccccc21,,"inconclusive: 28.2 µM [inhibitor, single point]"
CN1CCN(C(=O)C2=C[C@@H](C(C)(C)C)C[C@@H](OCc3ccc(CO)cc3)O2)CC1,,"inconclusive: 1.78 µM [inhibitor, partial curve, poor fit]"
CCCNC(=O)C1(O)c2cc(Br)ccc2NC(=O)N1c1ccc(Cl)cc1 (stereo not given),,"inconclusive: 0.141 µM [inhibitor, partial curve, poor fit]"
COc1ccc([C@@H]2[C@@H]3C(=O)N(C(C)(C)C)C(=O)[C@@H]3[C@]3(Cc4ccccc4)C(=O)N(c4cccc(Cl)c4)C(=O)N23)cc1,inactive: 1.61%,
Cn1c2ccccc2c(=O)c2cc(C#Cc3ccc(N)cc3)ccc21,,"inconclusive: 11.2 µM [inhibitor, single point]"
O=c1cc(-c2ccc(O)cc2)oc2ccc3ccccc3c12,,active: 0.891 µM
Cc1ccc(C(=O)COC(=O)c2cccs2)cc1,inactive: 0.701%,
Cc1c(C)c2ccc(OC(C)C(=O)N3CC[C@@]4(O)CCCC[C@H]4C3)c(C)c2oc1=O (stereo not given in full),,"inconclusive: 12.6 µM [inhibitor, partial curve, poor fit]"
CCn1nc(C)cc1C(=O)NC1CCCc2c1cnn2-c1cc(F)cc(F)c1 (stereo not given),,"inconclusive: 12.6 µM [inhibitor, partial curve, poor fit]"
C/C(=N\NC(=O)C(C)n1nc(C)c([N+](=O)[O-])c1C)c1ccccc1O (stereo not given),,"inconclusive: 11.2 µM [inhibitor, single point]"
c1ccc(-c2cc3cc4c(cc3cn2)OCO4)cc1,,"inconclusive: 31.6 µM [inhibitor, single point]"
Cc1c(S(=O)(=O)N2CCC(C)CC2)c(=O)n(C)c(=O)n1C,inactive: -3.47%,
C=CC[C@@H](Cc1ccc(F)cc1)C(=O)OC[C@H]1CCCN1C(=O)[C@@H](CC=C)CC(=O)N[C@@H](CO)Cc1ccccc1,,"inconclusive: 12.6 µM [inhibitor, partial curve, poor fit]"
Cc1cc(Br)ccc1NC(=O)c1ccccc1-c1ccccc1,,"inconclusive: 11.2 µM [inhibitor, partial curve]"
O=C(O)c1cc(S(=O)(=O)N2CC3CC3C2C(=O)O)c(Cl)cc1Cl (stereo not given),inactive: 0.498%,
CCC1Oc2ccccc2N(CC(=O)NCc2ccco2)C1=O (stereo not given),,"inconclusive: 0.0112 µM [inhibitor, full curve, poor fit]"
COc1cc(NC(=S)N2CCC(C(O)(c3ccccc3)c3ccccc3)CC2)cc(OC)c1,,"inconclusive: 8.91 µM [inhibitor, partial curve, poor fit]"
O=[N+]([O-])c1ccc(-[n+]2ccc3ccccc3c2)c([N+](=O)[O-])c1,,"inconclusive: 11.2 µM [inhibitor, partial curve, poor fit]"
Cc1ccccc1NC(=O)CCC(=O)N/N=C/c1ccc(F)cc1,,"inconclusive: 12.6 µM [inhibitor, partial curve, poor fit]"
COc1ccc(CCN(C)CCCC(C#N)(c2cc(OC)c(OC)c(OC)c2)C(C)C)cc1OC (stereo not given),,"inconclusive: 4.47 µM [inhibitor, partial curve, poor fit]"
